These are yes or no findings as the source states them, for the method shown. Binding seen in cells or lysates may run through a third protein. Some binding calls cover weakened binding; strength is not graded here.
Biological target: X-ray repair cross complementing group1 (XRCC1) (human (endogenous in BGC823/DDP)) (UniProt P18887)
Assay: co-IP; BGC823/DDP cells pretreated with DDP or DDP+JP3 for 24 h; 500 μg of cell extract with anti-XRCC1 antibody or IgG (2 μg), Protein A/G agarose beads overnight at 4 °C; western blot for CK2α

By UniProt entry, the sequences of proteins in these tests, tags left out.
UniProt P18887: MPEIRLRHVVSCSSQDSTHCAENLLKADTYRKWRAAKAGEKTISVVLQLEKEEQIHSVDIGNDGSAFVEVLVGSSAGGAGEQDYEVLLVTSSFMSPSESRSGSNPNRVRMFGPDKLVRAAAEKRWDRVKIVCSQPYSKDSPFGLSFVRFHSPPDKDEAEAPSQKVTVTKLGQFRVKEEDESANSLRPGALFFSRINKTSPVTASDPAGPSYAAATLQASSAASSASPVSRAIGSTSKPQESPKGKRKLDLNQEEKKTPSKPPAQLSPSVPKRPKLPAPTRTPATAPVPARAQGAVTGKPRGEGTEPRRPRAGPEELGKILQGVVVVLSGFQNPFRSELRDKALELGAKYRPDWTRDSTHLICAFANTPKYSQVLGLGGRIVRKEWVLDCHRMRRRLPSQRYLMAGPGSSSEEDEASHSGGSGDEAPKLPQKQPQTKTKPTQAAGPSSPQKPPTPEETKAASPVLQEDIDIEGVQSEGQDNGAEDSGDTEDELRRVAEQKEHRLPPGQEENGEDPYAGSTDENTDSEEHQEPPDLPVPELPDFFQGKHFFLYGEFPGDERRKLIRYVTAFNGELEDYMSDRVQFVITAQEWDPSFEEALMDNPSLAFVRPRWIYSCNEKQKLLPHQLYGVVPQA
UniProt P68400: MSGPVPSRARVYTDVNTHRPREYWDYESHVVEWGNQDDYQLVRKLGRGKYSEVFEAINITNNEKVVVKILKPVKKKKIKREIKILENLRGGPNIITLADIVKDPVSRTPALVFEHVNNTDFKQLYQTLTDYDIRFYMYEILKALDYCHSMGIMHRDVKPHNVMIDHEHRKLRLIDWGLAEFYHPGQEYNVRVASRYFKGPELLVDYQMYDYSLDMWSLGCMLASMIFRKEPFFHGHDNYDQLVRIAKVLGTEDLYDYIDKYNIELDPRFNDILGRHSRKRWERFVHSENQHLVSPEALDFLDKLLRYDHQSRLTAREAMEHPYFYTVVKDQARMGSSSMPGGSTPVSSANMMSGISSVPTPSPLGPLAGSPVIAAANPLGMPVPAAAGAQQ

casein kinase 2 alpha (CK2α) (from UniProt P68400 1-391) (enzyme)
binding: binds
